PMC5716709
Results are given in words; binding and its absence hold for the method and conditions named. Binding seen in cells or lysates may run through a third protein. Some entries that bind do so weakly or less than the wild type. For some of these results: Where a sequence is shown, tags or fusion partners need not be part of it. One block for each binder: values may come before it.

Experiments:
[1] = molecular target: endogenously expressed YAP (human (endogenous in 7404 and PVTT)) (UniProt P46937); test: co-IP; endogenously expressed proteins in 7404 and PVTT cells
GST-YAP fusion protein = GST-YAP fusion protein (UniProt P46937); test: pull-down; GST pull-down using 7404 cell lysate and GST-YAP fusion protein; only the target purified
Flag-YAP = Flag-YAP (UniProt P46937); test: co-IP; immunoprecipitation of ectopically expressed Flag-YAP (or YAP del 174-203aa) and myc-NUP37 in 7404 cells
[2] = molecular target: YAP mutant (del 174-203aa) (UniProt P46937); test: as above

binding [1]: binds | binding (GST-YAP fusion protein): binds
B1: endogenous NUP37 (protein, UniProt Q8NFH4 1-326)
chain: MKQDASRNAAYTVDCEDYVHVVEFNPFENGDSGNLIAYGGNNYVVIGTCTFQEEEADVEGIQYKTLRTFHHGVRVDGIAWSPETRLDSLPPVIKFCTSAADMKIRLFTSDLQDKNEYKVLEGHTDFINGLVFDPKEGQEIASVSDDHTCRIWNLEGVQTAHFVLHSPGMSVCWHPEETFKLMVAEKNGTIRFYDLLAQQAILSLESEQVPLMSAHWCLKNTFKVGAVAGNDWLIWDITRSSYPQNKRPVHMDRACLFRWSTISENLFATTGYPGKMASQFQIHHLGHPQPILMGSVAVGSGLSWHRTLPLCVIGGDHKLLFWVTEV

binding (Flag-YAP): binds | binding [2]: no binding
B2: myc-tagged NUP37 (protein, UniProt Q8NFH4 1-326)
chain: B1 chain
